We go through 1 molecule from publication PMC11923994.

The test deals with T1, SOX9, P48436.
T1 chain: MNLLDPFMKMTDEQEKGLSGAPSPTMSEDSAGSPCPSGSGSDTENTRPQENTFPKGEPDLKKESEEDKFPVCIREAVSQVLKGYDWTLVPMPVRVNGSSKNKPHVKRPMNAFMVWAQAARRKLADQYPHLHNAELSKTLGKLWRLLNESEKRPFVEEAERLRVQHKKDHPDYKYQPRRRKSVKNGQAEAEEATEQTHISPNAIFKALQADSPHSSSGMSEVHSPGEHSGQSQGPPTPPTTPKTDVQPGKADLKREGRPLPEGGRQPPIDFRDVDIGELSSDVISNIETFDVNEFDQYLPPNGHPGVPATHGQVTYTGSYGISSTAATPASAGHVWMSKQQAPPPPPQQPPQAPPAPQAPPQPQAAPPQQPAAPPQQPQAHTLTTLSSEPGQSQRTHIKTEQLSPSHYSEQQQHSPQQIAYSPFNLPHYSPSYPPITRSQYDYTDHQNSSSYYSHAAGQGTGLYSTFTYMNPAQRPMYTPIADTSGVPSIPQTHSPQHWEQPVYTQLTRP
Briefly: co-IP; co-immunoprecipitation (CO-IP) 'under stable conditions'; bait, cells and buffers not told in the text shown (Figure S15, Supporting Information). Conditions: remark: other sources report otherwise.

These are yes or no findings as the source states them, for the method shown. Binding seen in cells or lysates may run through a third protein. Some entries that bind do so weakly or less than the wild type.

B1: SIRT1, Q96EB6 1-747 (enzyme)
chain: MADEAALALQPGGSPSAAGADREAASSPAGEPLRKRPRRDGPGLERSPGEPGGAAPEREVPAAARGCPGAAAAALWREAEAEAAAAGGEQEAQATAAAGEGDNGPGLQGPSREPPLADNLYDEDDDDEGEEEEEAAAAAIGYRDNLLFGDEIITNGFHSCESDEEDRASHASSSDWTPRPRIGPYTFVQQHLMIGTDPRTILKDLLPETIPPPELDDMTLWQIVINILSEPPKRKKRKDINTIEDAVKLLQECKKIIVLTGAGVSVSCGIPDFRSRDGIYARLAVDFPDLPDPQAMFDIEYFRKDPRPFFKFAKEIYPGQFQPSLCHKFIALSDKEGKLLRNYTQNIDTLEQVAGIQRIIQCHGSFATASCLICKYKVDCEAVRGDIFNQVVPRCPRCPADEPLAIMKPEIVFFGENLPEQFHRAMKYDKDEVDLLIVIGSSLKVRPVALIPSSIPHEVPQILINREPLPHLHFDVELLGDCDVIINELCHRLGGEYAKLCCNPVKLSEITEKPPRTQKELAYLSELPPTPLHVSEDSSSPERTSPPDSSVIVTLLDQAAKSNDDLDVSESKGCMEEKPQEVQTSRNVESIAEQMENPDLKNVGSSTGEKNERTSVAGTVRKCWPNRVAKEQISRRLDGNQYLFLPPNRYIFHGAEVYSDSEDDVLSSSSCGSNSDSGTCQSPSLEEPMEDESEIEEFYNGLEDEPDVPERAGGAGFGTDGDDQEAINEAISVKQEVTDMNYPSNKS
Consider B1, for which the binding entry is “binds”.
